No constants are given. Whether binding was seen depends on the method and setting. Some binding calls cover weakened binding; strength is not graded here. Tags and fused reporters may be left off the sequences shown.
B1: anti-CD8 hashtag phage nanobody PH-B (phagemid pDXinit-CD8Nb(PH-B)-PAC) (VHH, not shown: large carriers; small tags and cut ends)
VHH: QVQLQESGGGSVQPGGSLRLSCAASGFTFDDYAMSWVRQVPGKGLEWVSTINWNGGSAEYAEPVKGRFTISRDNAKNTVYLQMNSLKLEDTAVYYCAKDADLVWYNLSTGQGTQVTVSS
B2: anti-CD8 hashtag phage nanobody PH-C (phagemid pDXinit-CD8Nb(PH-C)-PAC) (VHH, not shown: large carriers; small tags and cut ends)
VHH: B1 VHH
B3: anti-CD8 hashtag phage nanobody PH-D (phagemid pDXinit-CD8Nb(PH-D)-PAC) (VHH, not shown: large carriers; small tags and cut ends)
VHH: B1 VHH
B4: PAC-tagged anti-CD8 nanobody-displaying M13 phage (phagemid pDXinit-CD8Nb-PAC) (VHH, not shown: large carriers; small tags and cut ends)
VHH: B1 VHH
B5: anti-CD8 hashtag phage nanobody PH-A (phagemid pDXinit-CD8Nb(PH-A)-PAC) (VHH, not shown: large carriers; small tags and cut ends)
VHH: B1 VHH

By UniProt entry, the sequences of proteins in these tests, tags left out. Residues count along the entry.
UniProt P01732, residues 22-235: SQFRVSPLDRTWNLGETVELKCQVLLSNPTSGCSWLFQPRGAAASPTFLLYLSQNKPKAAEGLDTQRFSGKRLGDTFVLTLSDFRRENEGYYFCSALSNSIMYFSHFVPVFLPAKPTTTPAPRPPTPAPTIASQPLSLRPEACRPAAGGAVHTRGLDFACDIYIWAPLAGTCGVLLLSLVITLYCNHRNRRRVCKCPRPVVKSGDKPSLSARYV

What was measured:
[1] = molecular target: CD8 on primary human PBMCs / CD8 T cells (human) (UniProt P01732); experiment: flow cytometry of phage-stained human PBMCs (lymphocyte gate)
[2] = molecular target: CD8 on primary human PBMCs / CD8 T cells (human) (UniProt P01732); experiment: flow cytometry of phage-stained human PBMCs

Row | Binder | binding [1] | binding [2]
1 | B1 | binds | 
2 | B2 | binds | 
3 | B3 | binds | 
4 | B4 |  | binds
5 | B5 | binds | 

From US20220090089A1
